Data taken from patent publication US20230330100A1 (Woolsey Pharmaceuticals, Inc., priority 2022, published 2023).
Structures can show the parent of a compound that is named as a salt.

Tests used:
[1] = Tasting of fasudil solutions and formulations (bitterness rank, palatability) by tasters/panel; conditions: drug in solution, unmasked
[2] = Taste threshold concentration for fasudil; conditions: for most people; range accounting for super tasters and normal tasters

O=S(=O)(c1cccc2cnccc12)N1CCCNCC1 [fasudil, hexahydro-1-(5-isoquinolinesulfonyl)-1H-1,4-diazepine monohydrochloride hemihydrate]
taste of the drug ([1]; listed as fasudil hydrochloride, monohydrochloride hemihydrate): highly aversive numbing and bitter taste
taste of the drug ([1]; monohydrochloride hemihydrate): very aversive, bitter taste
taste threshold concentration [2]: 0.1 to 0.4 mg/mL

O=c1[nH]ccc2c(S(=O)(=O)N3CCCNCC3)cccc12 [hydroxyfasudil]
taste of the drug [1]: highly aversive numbing and bitter taste
